For at least one compound, name, drawing or mass did not settle the structure.
Experiments:
[1] = Dissolution study of liraglutide (in vitro release); assay type: physicochemical; settings: phosphate buffer pH 6.80, 30 ml, 200 RPM
[2] = system: trypsin; experiment: pH measurement for trypsin after incubation with metal salt(s) and reducing agent(s); assay type: physicochemical, Human; settings: single wells of triplicates, combination per plate map Table 3
[3] = system: Human Chymotrypsin; experiment: Oxidative inactivation of Chymotrypsin by combinations of metal salts and reducing agents (enzymatic activity); assay type: biochemical; settings: reducing agent 1 mM, metal salt 5 μM, compared with original activity
[4] = system: Human Trypsin; experiment: Oxidative inactivation of trypsin by combinations of metal salts and reducing agents (enzymatic activity, BAEE substrate); assay type: biochemical; settings: reducing agent 1 mM, metal salt 5 μM, compared with original activity

| Structure (SMILES) | liraglutide sodium released between 5-7 minutes [1] | pH measurement for trypsin ([2]; interval of 5 min) | pH measurement for trypsin ([2]; interval of 15 min) | pH measurement for trypsin ([2]; interval of 30 min) | Enzymatic activity of Chymotrypsin ([3]; incubation 5 min at 37° C.) | Enzymatic activity of Chymotrypsin ([3]; incubation 15 min at 37° C.) | Enzymatic activity of Chymotrypsin ([3]; incubation 30 min at 37° C.) | Enzymatic activity of trypsin ([4]; incubation 5 min at 37° C.) | Enzymatic activity of trypsin ([4]; incubation 15 min at 37° C.) | Enzymatic activity of trypsin ([4]; incubation 30 min at 37° C.) |
| --- | --- | --- | --- | --- | --- | --- | --- | --- | --- | --- |
| CCCCCCCCCCCCCCCC(=O)N[C@@H](CCC(=O)NCCCC[C@H](NC(=O)[C@H](C)NC(=O)[C@H](C)NC(=O)[C@H](CCC(N)=O)NC(=O)CNC(=O)[C@H](CCC(=O)O)NC(=O)[C@H](CC(C)C)NC(=O)[C@H](Cc1ccc(O)cc1)NC(=O)[C@H](CO)NC(=O)[C@H](CO)NC(=O)[C@@H](NC(=O)[C@H](CC(=O)O)NC(=O)[C@H](CO)NC(=O)[C@@H](NC(=O)[C@H](Cc1ccccc1)NC(=O)[C@@H](NC(=O)CNC(=O)[C@H](CCC(=O)O)NC(=O)[C@H](C)NC(=O)[C@@H](N)Cc1cnc[nH]1)[C@@H](C)O)[C@@H](C)O)C(C)C)C(=O)N[C@@H](CCC(=O)O)C(=O)N[C@@H](Cc1ccccc1)C(=O)N[C@H](C(=O)N[C@@H](C)C(=O)N[C@@H](Cc1c[nH]c2ccccc12)C(=O)N[C@@H](CC(C)C)C(=O)N[C@H](C(=O)N[C@@H](CCCNC(=N)N)C(=O)NCC(=O)N[C@@H](CCCNC(=N)N)C(=O)NCC(=O)O)C(C)C)[C@@H](C)CC)C(=O)O [Liraglutide] | More than 5000 | – | – | – | – | – | – | – | – | – |
| O=C(/C=C/C=C/c1ccc2c(c1)OCO2)N1CCCCC1 [Piperine] | – | 2.2 | 2.2 | 2.2 | 84.21 | 80 | 35.48 | 172.4 | 66.67 | 45.71 |
